Measured values from publication doi:10.1101/2024.06.26.600760.
These are yes or no findings as the source states them, for the method shown. In cells and extracts the contact can be indirect. Some entries that bind do so weakly or less than the wild type.

Amino acid sequences for entries named in this document (tags omitted). A change or cut given only in a name is not applied to a line headed by its entry.
UniProt Q13315: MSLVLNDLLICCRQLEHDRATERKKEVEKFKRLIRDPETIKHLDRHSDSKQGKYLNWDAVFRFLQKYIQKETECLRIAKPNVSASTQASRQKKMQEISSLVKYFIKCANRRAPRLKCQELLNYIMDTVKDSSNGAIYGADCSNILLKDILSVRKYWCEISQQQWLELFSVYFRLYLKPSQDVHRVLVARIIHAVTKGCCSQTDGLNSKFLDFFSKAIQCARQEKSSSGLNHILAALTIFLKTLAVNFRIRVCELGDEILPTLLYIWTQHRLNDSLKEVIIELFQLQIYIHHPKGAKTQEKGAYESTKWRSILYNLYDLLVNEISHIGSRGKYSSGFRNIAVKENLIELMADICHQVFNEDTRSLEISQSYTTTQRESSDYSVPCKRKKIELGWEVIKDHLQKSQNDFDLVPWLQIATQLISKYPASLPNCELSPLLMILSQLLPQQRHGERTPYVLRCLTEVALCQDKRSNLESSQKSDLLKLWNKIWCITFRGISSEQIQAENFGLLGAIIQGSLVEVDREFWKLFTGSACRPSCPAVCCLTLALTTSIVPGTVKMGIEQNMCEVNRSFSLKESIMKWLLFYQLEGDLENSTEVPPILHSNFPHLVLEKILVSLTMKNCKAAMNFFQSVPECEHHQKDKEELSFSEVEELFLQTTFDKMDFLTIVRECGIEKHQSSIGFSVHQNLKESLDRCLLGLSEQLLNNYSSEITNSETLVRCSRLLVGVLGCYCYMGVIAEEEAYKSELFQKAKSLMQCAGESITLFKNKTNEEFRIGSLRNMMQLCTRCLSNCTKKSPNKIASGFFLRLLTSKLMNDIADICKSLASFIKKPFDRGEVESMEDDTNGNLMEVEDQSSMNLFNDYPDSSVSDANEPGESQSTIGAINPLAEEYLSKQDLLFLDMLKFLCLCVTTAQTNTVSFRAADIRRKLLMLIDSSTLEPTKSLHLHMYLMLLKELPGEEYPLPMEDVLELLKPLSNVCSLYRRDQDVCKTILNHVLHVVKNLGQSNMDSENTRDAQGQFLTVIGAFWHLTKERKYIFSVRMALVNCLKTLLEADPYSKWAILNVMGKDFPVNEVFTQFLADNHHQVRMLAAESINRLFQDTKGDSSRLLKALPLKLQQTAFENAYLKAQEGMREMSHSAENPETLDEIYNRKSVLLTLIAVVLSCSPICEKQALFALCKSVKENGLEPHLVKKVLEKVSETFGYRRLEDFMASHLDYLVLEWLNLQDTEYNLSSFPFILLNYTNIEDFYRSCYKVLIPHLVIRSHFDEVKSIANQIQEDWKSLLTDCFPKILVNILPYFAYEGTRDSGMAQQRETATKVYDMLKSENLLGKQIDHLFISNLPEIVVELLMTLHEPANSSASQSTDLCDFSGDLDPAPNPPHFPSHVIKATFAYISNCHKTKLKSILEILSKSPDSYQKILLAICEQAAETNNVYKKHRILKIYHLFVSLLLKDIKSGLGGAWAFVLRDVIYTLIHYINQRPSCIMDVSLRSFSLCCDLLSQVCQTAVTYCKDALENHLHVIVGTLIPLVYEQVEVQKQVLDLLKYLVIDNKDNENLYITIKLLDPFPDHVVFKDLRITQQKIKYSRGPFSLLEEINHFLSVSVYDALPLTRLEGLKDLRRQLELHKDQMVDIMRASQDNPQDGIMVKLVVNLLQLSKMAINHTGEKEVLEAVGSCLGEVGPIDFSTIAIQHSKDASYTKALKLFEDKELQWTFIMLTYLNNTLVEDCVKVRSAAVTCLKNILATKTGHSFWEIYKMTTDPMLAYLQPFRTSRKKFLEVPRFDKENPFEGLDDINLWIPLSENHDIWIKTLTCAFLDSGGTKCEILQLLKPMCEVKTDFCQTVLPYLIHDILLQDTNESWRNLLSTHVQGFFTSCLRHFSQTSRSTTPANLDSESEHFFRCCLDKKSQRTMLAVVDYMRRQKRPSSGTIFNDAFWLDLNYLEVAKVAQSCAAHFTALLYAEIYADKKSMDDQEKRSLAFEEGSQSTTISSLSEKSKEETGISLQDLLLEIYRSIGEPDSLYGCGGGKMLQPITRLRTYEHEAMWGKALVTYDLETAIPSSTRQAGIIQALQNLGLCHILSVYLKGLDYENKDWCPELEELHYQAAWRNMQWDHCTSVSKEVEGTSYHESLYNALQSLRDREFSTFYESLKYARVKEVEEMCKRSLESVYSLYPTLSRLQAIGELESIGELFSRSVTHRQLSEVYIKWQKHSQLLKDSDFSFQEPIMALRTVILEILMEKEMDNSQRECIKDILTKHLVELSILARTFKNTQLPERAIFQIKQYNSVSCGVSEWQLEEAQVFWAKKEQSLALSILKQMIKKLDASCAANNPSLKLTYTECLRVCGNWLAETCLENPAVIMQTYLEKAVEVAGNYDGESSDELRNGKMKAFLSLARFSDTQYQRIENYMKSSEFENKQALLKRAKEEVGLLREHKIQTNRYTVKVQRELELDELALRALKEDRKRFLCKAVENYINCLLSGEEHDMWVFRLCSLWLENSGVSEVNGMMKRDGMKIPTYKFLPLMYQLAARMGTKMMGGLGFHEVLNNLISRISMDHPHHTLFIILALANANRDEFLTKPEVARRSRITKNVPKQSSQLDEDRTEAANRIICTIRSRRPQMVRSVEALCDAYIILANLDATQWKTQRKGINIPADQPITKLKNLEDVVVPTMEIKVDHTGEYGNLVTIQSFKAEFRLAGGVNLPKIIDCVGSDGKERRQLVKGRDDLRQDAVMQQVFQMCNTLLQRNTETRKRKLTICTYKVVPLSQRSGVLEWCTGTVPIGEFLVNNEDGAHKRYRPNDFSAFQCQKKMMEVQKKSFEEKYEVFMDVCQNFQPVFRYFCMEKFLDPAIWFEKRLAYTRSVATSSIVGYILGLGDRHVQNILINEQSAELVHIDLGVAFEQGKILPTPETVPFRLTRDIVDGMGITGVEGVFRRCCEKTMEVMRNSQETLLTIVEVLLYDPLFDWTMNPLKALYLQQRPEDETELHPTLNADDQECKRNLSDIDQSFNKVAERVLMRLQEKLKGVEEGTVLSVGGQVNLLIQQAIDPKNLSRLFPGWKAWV

Target: Ataxia Telangiectasia Mutated (ATM) (human (endogenous in SH-SY5Y)) (UniProt Q13315)
Assay: co-IP

B1: collapsin response mediator protein 5 (CRMP5) (protein, UniProt Q9BPU6 1-564)
chain: MLANSASVRILIKGGKVVNDDCTHEADVYIENGIIQQVGRELMIPGGAKVIDATGKLVIPGGIDTSTHFHQTFMNATCVDDFYHGTKAALVGGTTMIIGHVLPDKETSLVDAYEKCRGLADPKVCCDYALHVGITWWAPKVKAEMETLVREKGVNSFQMFMTYKDLYMLRDSELYQVLHACKDIGAIARVHAENGELVAEGAKEALDLGITGPEGIEISRPEELEAEATHRVITIANRTHCPIYLVNVSSISAGDVIAAAKMQGKVVLAETTTAHATLTGLHYYHQDWSHAAAYVTVPPLRLDTNTSTYLMSLLANDTLNIVASDHRPFTTKQKAMGKEDFTKIPHGVSGVQDRMSVIWERGVVGGKMDENRFVAVTSSNAAKLLNLYPRKGRIIPGADADVVVWDPEATKTISASTQVQGGDFNLYENMRCHGVPLVTISRGRVVYENGVFMCAEGTGKFCPLRSFPDTVYKKLVQREKTLKVRGVDRTPYLGDVAVVVHPGKKEMGTPLADTPTRPVTRHGGMRDLHESSFSLSGSQIDDHVPKRASARILAPPGGRSSGIW
binding: binds
